In paper PMC10687080, “Resurrecting ancestral antibiotics: unveiling the origins of modern lipid II targeting glycopeptides” (Nature Communications, 2023):
No constants are given. Whether binding was seen depends on the method and setting. Some results given as binding are weak or reduced against the parent protein; the word gives no strength. Where a sequence is shown, tags or fusion partners need not be part of it.

Key:
Experiment in all cases: crystal structure; A_(core) construct co-expressed with Tcp13 in E. coli, purified together, crystallised as a complex by sitting drop vapour diffusion at 20 °C; 8GJ4 solved with two dimers of Tcp9 A1_(core-tei)/Tcp13; both purified
[1] = biological target: Tcp9 A1_(core-ANC2), pocket graft of the ANC2 substrate pocket into A1_(core-tei) (UniProt Q70AZ9)
[2] = biological target: Tcp9 A1_(core-ANC3), pocket graft of the ANC3 substrate pocket into A1_(core-tei) (UniProt Q70AZ9)
[3] = biological target: Tcp9 A1_(core-Tei), A_(core) construct of the Hpg-accepting A1 adenylation domain from teicoplanin biosynthesis (residues 9-398) (UniProt Q70AZ9)

binding [1]: binds
binding [2]: binds
binding [3]: binds
B1: MbtH-like protein Tcp13 from Actinoplanes teichomyceticus (protein, UniProt Q70AZ5 1-69)
chain: MTNPFDNEDGSFLVLVNGEGQHSLWPAFAEVPDGWTGVHGPASRQDCLGYVEQNWTDLRPKSLISQISD
